From the supplement of paper PMC10973195 come the findings set out here.

± gives the standard deviation of the averaged measurements. This is one part of the list. Values are raw readings; no control value is given beside them.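 In this assay, LPS from bacteria induces microglia-mediated neuronal death in a neuron–microglia–astrocyte co-culture, a model of inflammatory neurodegeneration. Compounds were compared against same-plate DMSO vehicle wells, with the SYK inhibitor BAY61-3606 as reference neuroprotective control.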

In the first test the test system is rat primary cerebellar neuron-glia coculture. In words: live neuron count (NeuO+) per image field (cells per field); higher = more surviving neurons. As to conditions: LPS 0 ng/mL; 1 µM; treatment time 3 days. Here is the method: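 Primary rat (P3-7) cerebellar neuron-glia cocultures in 384-well plates were treated at DIV7 with 1 uM compound, then with or without 100 ng/mL LPS 30 min later, for 3 days. At DIV10 live cells were stained with Hoechst 33342, NeuO (live neurons), IB4-AF594 (microglia) and DRAQ7 (necrotic cells) and imaged at 10x (4 fields per well, IN Cell Analyzer 6000). Cells were classified with Cellpose/CellProfiler plus a Random Trees classifier. Values are per-well mean counts per image field (raw, not min-max normalised) and the median microglial FormFactor per image. Three technical replicates per repeat across 4 biological repeats; DMSO and BAY61-3606 serve as controls.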
With `Cc1noc(-c2ccc(CSCCC(=O)O)cc2)c1NC(=O)OC(C)c1ccccc1Cl` (stereo not given), the live neuron count was 2530 ± 580.

With `C/C(=N\NC(=O)c1cccc(S(=O)(=O)N2CCOCC2)c1)c1ccccc1O`, the live neuron count is 2610 ± 500.

`Nc1ccccc1NC(=O)c1ccc(CNC(=O)OCc2cccnc2)cc1` had a live neuron count of 1680 ± 660.

In turn, `CC(C)Cc1ccc([C@@H](C)C(=O)NS(C)(=O)=O)cc1` gave a live neuron count of 2420 ± 750.

`O=c1[nH]c(=O)n([C@H]2C[C@H](O)[C@@H](CO)O2)cc1F` yielded a live neuron count of 2650 ± 490.

In turn, `CCCN1CCN(c2ccc(C(=O)NC3(C(=O)NCC#N)CCCCC3)cc2)CC1` came in with a live neuron count of 2620 ± 520.

On to `O=C(O)c1cc(-c2ccc(Cl)cc2)ncn1`, for which the live neuron count was determined as 2700 ± 550.

In turn, `CCCCC[C@H](CC(=O)NO)C(=O)N[C@H](C(=O)N1CCC[C@H]1CO)C(C)C` showed a live neuron count of 2450 ± 520.

As to `Cc1cc(O)c(-c2ccc([C@@H](C)CN(C)C)cc2)c2c1[nH]c(=O)c1sccc12`, the live neuron count amounted to 2280 ± 240.

`CCn1c(-c2nonc2N)nc2ccccc21`: the live neuron count was determined as 2470 ± 410.

In turn, `COc1ccc(-c2cc3nccn3c(Nc3ncccc3C(N)=O)n2)cc1OC` displayed a live neuron count of 3120 ± 420.

Molecule `Cc1c(C(=O)NN2CCCCC2)nn(-c2ccc(Cl)cc2Cl)c1-c1ccc(I)cc1` had a live neuron count of 2660 ± 550.

In turn, `COc1ccc(NS(=O)(=O)c2sc3ccc(Cl)cc3c2C)cc1N1CCNCC1` displayed a live neuron count of 2110 ± 650.

Molecule `CCN1CCN(c2ccc(Nc3cc(N(C)C(=O)Nc4c(Cl)c(OC)cc(OC)c4Cl)ncn3)cc2)CC1` displayed a live neuron count of 2740 ± 640.

For `Cc1ncc(Cl)cc1NCc1ccc(C(=O)N[C@@H](CC2CCCC2)C(=O)NC2CC2)s1`, the live neuron count turned out to be 2560 ± 400.

With `CCN(CC)C(=O)Cc1csc(NS(=O)(=O)c2cccc(Cl)c2C)n1`, the live neuron count is 2630 ± 380.

For the molecule `C[C@]12C=CC(=O)C=C1CC[C@H]1[C@@H]3C[C@@H](O)[C@](O)(C(=O)CO)[C@@]3(C)C[C@H](O)[C@@]12F`, the live neuron count is 2940 ± 370.

As for `O=C(Nc1ccc2c(c1)N(S(=O)(=O)c1ccc(F)cc1)CCC2)c1c(F)cccc1Cl`, the live neuron count is 2690 ± 390.

Take `COc1cc(OC2CCN(C)CC2)ccc1Nc1ncc2c(n1)n(C1CCCC1)c(=O)n2C`: the live neuron count came to 2720 ± 320.

`C#C[C@]1(O)CC[C@H]2[C@@H]3CCc4cc(O)ccc4[C@H]3CC[C@@]21C` returned a live neuron count of 2410 ± 690.

The test is the same for the next values; noted with them: LPS 100 ng/mL; 1 µM; treatment time 3 days.
The molecule `Cc1noc(-c2ccc(CSCCC(=O)O)cc2)c1NC(=O)OC(C)c1ccccc1Cl` (stereo not given) gave a live neuron count of 431 ± 350.

On to `C/C(=N\NC(=O)c1cccc(S(=O)(=O)N2CCOCC2)c1)c1ccccc1O`, for which the live neuron count came to 418 ± 740.

In turn, `Nc1ccccc1NC(=O)c1ccc(CNC(=O)OCc2cccnc2)cc1` returned a live neuron count of 61.5 ± 49.

The molecule `CC(C)Cc1ccc([C@@H](C)C(=O)NS(C)(=O)=O)cc1` displayed a live neuron count of 265 ± 210.

For `O=c1[nH]c(=O)n([C@H]2C[C@H](O)[C@@H](CO)O2)cc1F`, the live neuron count was found to be 701 ± 600.

`CCCN1CCN(c2ccc(C(=O)NC3(C(=O)NCC#N)CCCCC3)cc2)CC1` had a live neuron count of 218 ± 140.

For the molecule `O=C(O)c1cc(-c2ccc(Cl)cc2)ncn1`, the live neuron count came to 270 ± 120.

Take `CCCCC[C@H](CC(=O)NO)C(=O)N[C@H](C(=O)N1CCC[C@H]1CO)C(C)C`: the live neuron count was found to be 472 ± 520.

Regarding `Cc1cc(O)c(-c2ccc([C@@H](C)CN(C)C)cc2)c2c1[nH]c(=O)c1sccc12`, the live neuron count is 2290 ± 330.

In turn, `CCn1c(-c2nonc2N)nc2ccccc21` registered a live neuron count of 619 ± 360.

As for `COc1ccc(-c2cc3nccn3c(Nc3ncccc3C(N)=O)n2)cc1OC`, the live neuron count is 3560 ± 490.

The molecule `Cc1c(C(=O)NN2CCCCC2)nn(-c2ccc(Cl)cc2Cl)c1-c1ccc(I)cc1` registered a live neuron count of 388 ± 390.

The molecule `COc1ccc(NS(=O)(=O)c2sc3ccc(Cl)cc3c2C)cc1N1CCNCC1` came in with a live neuron count of 491 ± 500.

For `CCN1CCN(c2ccc(Nc3cc(N(C)C(=O)Nc4c(Cl)c(OC)cc(OC)c4Cl)ncn3)cc2)CC1`, the live neuron count turned out to be 377 ± 420.

For the molecule `Cc1ncc(Cl)cc1NCc1ccc(C(=O)N[C@@H](CC2CCCC2)C(=O)NC2CC2)s1`, the live neuron count worked out at 349 ± 370.

For the molecule `CCN(CC)C(=O)Cc1csc(NS(=O)(=O)c2cccc(Cl)c2C)n1`, the live neuron count was 346 ± 300.

In turn, `C[C@]12C=CC(=O)C=C1CC[C@H]1[C@@H]3C[C@@H](O)[C@](O)(C(=O)CO)[C@@]3(C)C[C@H](O)[C@@]12F` came in with a live neuron count of 3310 ± 350.

In turn, `O=C(Nc1ccc2c(c1)N(S(=O)(=O)c1ccc(F)cc1)CCC2)c1c(F)cccc1Cl` gave a live neuron count of 404 ± 340.

With `COc1cc(OC2CCN(C)CC2)ccc1Nc1ncc2c(n1)n(C1CCCC1)c(=O)n2C`, the live neuron count is 76.7 ± 40.

`C#C[C@]1(O)CC[C@H]2[C@@H]3CCc4cc(O)ccc4[C@H]3CC[C@@]21C` gave a live neuron count of 288 ± 380.
